## Primary screen of a compound library

The values are deposited in ChEMBL (CHEMBL3988442, “University of Dundee, Small-Polar-MMV Screening Library” (2021)).

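Cell assay of Leishmania donovani living inside macrophages; the read-out is not stated. Compounds at 30 µM. The record gives no direction; compounds that gave an IC50 in retests scored well above the rest, so higher reads as stronger inhibition. Size under these conditions: about 69,000 compounds, about 1,000 of them at 50% or above in at least one test.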

The filed quantity is “Percent Effect” (%). The controls that fix the scale are not given in the record; negative values are as filed. Compounds were drawn at random from those tested, without regard to their results. Two or more numbers in one place are separate tests of the same structure; such repeats can differ widely.

structure	percent effect
CC(C)N1CCOC(CC(=O)N2CCCN(c3ccc(F)cc3)CC2)C1 (stereo not given)	31.66
CN(CC(=O)N1CCCC1)C(=O)Cc1csc(-c2ncccn2)n1	11.72
O=C(CN1CC(c2nc(-c3ccco3)no2)C1)NCCc1ccccc1.O=C(O)C(=O)O	31.35
Cc1nc(CN(C)C2CCN(CCc3ccccn3)C2)no1 (stereo not given)	19.29
O=C(Cc1c[nH]c2ncccc12)NCC(O)c1ccccc1F (stereo not given)	41.12
CCC1c2ccccc2CCN1CCCS(C)(=O)=O (stereo not given)	-10.46
Cc1nc(CN2CCc3cncnc3C2)oc1C	9.808
Cc1nc(C)c(C(=O)Nc2cc(N3CCC(C)CC3)ncn2)s1	4.644
Cc1cnn(C2CCCN(C(=O)c3cn4cccnc4n3)C2)c1 (stereo not given)	17.67
CCSCc1csc(-c2ccc(S(C)(=O)=O)cc2)n1	27.02
CN(C(=O)NCCCN1CCCC1)C1CCN(c2ccccc2)C1=O (stereo not given)	-23.2
Cn1nc(CN2CCCCC2)c2c1CN(C(=O)c1ccoc1)C2	23.7
Cc1ncsc1CCN(C)Cc1ccc(CO)o1	-3.656
Cc1cccc(NC2CCc3c2[nH]c(=O)n(C2CCCCC2)c3=O)c1C (stereo not given)	34.58
CC(C)NC(=O)c1ccc2c(c1)C(c1nc[nH]n1)CN2C (stereo not given)	-13.72
Cc1nn(C)cc1-c1cc(C(=O)NCC(C)(C)c2cccc(F)c2)n[nH]1	12.99
CNC(=O)c1nc2c(s1)CCN(C(=O)c1cccc(OC)c1)CC2	-3.463
CCCc1nc(Cn2c(=O)n(C)c3ccccc32)no1	15.33
COCCC1(C(=O)O)CCCN(Cc2cc3c(cc2Cl)OCO3)C1 (stereo not given)	9.7
CCN(Cc1cccc2c1OCO2)C(=O)Nc1ccncc1	24.11
COc1cccc(CNc2cc(CO)ccc2Cl)c1	16.38
CCNC(=O)NCc1ccnc(N(C)C)n1	-10.86
O=C(Cn1ccnc1)N1CCCC(OCc2cccnc2)C1 (stereo not given)	6.248
CC(=O)Nc1ccc(CNC(C)c2c(C)nn(C)c2C)cc1 (stereo not given)	-10.98
CCN(CC)c1ccc(CNC(=O)c2cnc(C)cn2)cn1	27.32
COCc1cc(NCc2ccccc2OC)ncn1	9.858
CN1C(=O)Cc2cc(-c3csc(CCN4CCOC4=O)n3)ccc21	-30.06
CCc1cnc(N)nc1NCCn1cc(Cl)cn1	-56.42
O=C(NCCc1ccn(-c2ccccc2)n1)N1CCC1	-1.391
Cn1cc(CN2CCCC3(CCCN3S(C)(=O)=O)C2)cn1.O=C(O)C(F)(F)F (stereo not given)	11.21
O=C(O)C(F)(F)F.O=C(O)C(F)(F)F.[H][C@@]12OCCN(C(=O)c3cncc(C)c3)[C@@]1([H])CC[C@H]2Oc1ccccn1	39.09
CCN(CC)CCn1c(=O)oc2ccccc21.Cl	-4.159
O=C(O)C(F)(F)F.O=C(O)C(F)(F)F.O=C(O)C(F)(F)F.[H][C@@]12OCCC[C@]1([H])N(Cc1nccn1C)C[C@@H]2N1CCOCC1	16.87
CCc1cccc(OC2CN(C(=O)[C@@H](N)CCSC)C2)c1	8.72
CCC1=NC(SCC(=O)c2ccc(Cl)cc2)c2cc(CC)sc2N1 (stereo not given)	-4.507
O=C(Nc1ccc(CC(=O)N2CCSCC2)cc1)NC1CC1	50.93
O=C1CC(N(C(=O)c2csc(-c3ccccc3)n2)C2CC2)C(=O)N1 (stereo not given)	-21.34
N#Cc1ccc(F)c(CSCCN2CCOCC2)c1	19.11
Cc1cc(C)n(C2CCCN(C(=O)Cc3cccc(F)c3)C2)n1 (stereo not given)	8.159
CCc1nnc2n1CCN(C(=O)C(C)Oc1cccc(C#N)c1)C2 (stereo not given)	-17.54
[H][C@@]12C[C@H](C(=O)Nc3cccnc3)[C@@]([H])(CN(C)C1)O2	-5.417
CCc1nc(CN(C)CC(N)=O)cs1	-11.72
CNC(=O)c1ccc(NC(=O)NC(C)c2cc(C)oc2C)c(C)c1 (stereo not given)	22.51
CCC1=NN2C(=N)/C(=C\c3cccn3-c3cccc(Cl)c3)C(=O)N=C2S1	14.12
COCC(=O)N1CCC([C@@H]2C[C@H](C(F)(F)F)n3nc(C)cc3N2)CC1	14.68 and 17.12
CSCc1nc(CCNC(=O)C2CCCN(C(C)=O)C2)cs1 (stereo not given)	10.77
O=c1c(CN2CC3CCCN3C[C@@H]2CCO)coc2ccc(Cl)cc12 (stereo not given in full)	31.89

3 of the entries, repeated:

* COc1cccc(CNc2cc(CO)ccc2Cl)c1 | 16.38%
* CCc1nc(CN(C)CC(N)=O)cs1 | -11.72%
* CSCc1nc(CCNC(=O)C2CCCN(C(C)=O)C2)cs1 (stereo not given) | 10.77%